Drawing on PubChem BioAssay AID2685 (National Center for Advancing Translational Sciences (NCATS), 2010), this text covers AC50 and cell number change for 58 compounds.

The assay can be described thus: qHTS Assay for Lipid Storage Modulators in Drosophila S3 Cells.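 For cell number change: cells counted by Cell Tracker Red CMTPX staining in the red channel.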 The following applies: BODIPY lipid droplet fluorescence, 18-24 h; for cell number change: measured here: cell count max response, cells fed with added oleic acid. The method, boiled down: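 Drosophila S3 cells loaded with oleic acid (400 uM, as added) and compounds at several concentrations; lipid droplets imaged by 488-nm laser-scanning cytometry, 500–530 nm intensity and object ratio to cell channel. Percent activity normalized to 20 uM Triacsin C.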

The mark [1] stands for this setting: measured here: lipid fluorescence (Fed channel) AC50, cells fed with added oleic acid.
[2] abbreviates: measured here: cell number channel AC50, cells fed with added oleic acid.

The other results are listed elsewhere or left out. Shown are side measurements of this screen, not its main read-out; they come without a call. Compounds called inactive in the main read-out are mostly missing here. Words in brackets tell the shape of the fitted curve; partial curves, single points and poor fits give uncertain potencies.

Take `Cc1nc(SCC(=O)N2CCC(C(N)=O)CC2)n[nH]1`: the AC50 under setting [1] was 3.26 µM [rising, single point].

On to `CCN(CCCNC(=O)CC(C(=O)N1CCc2ccccc21)n1ccnc1)c1ccccc1` (configuration not stated), for which the cell number change is -23%. Further, the AC50 under setting [2] is 4.61 µM [falling, full curve, poor fit]. Further, under setting [1], the AC50 is 0.58 µM [falling, single point].

Turning to `COc1ccc(CNC(=O)CCOc2ccc(C(C)(C)C)cc2)cc1`, the cell number change is 58.2%. Further, under setting [2], the AC50 was 5.17 µM [rising, partial curve].

Take `O=[N+]([O-])c1ccc(-n2nncc2-c2ccc(Cl)cc2)cc1`: the concentration at half-maximal activity (AC50) under setting [1] was 0.651 µM [falling, single point].

Consider `COc1ccc(NS(=O)(=O)c2ccc(-c3n[nH]c(=S)n3Cc3ccccc3)cc2)cc1`, for which the cell number change worked out at 6.94%. In addition, the AC50 under setting [1] was 0.651 µM [rising, full curve].

Consider `COc1cccc(C2CC(c3cccs3)=NN2C(=S)Nc2ccccc2)c1OC` (configuration not stated), for which the cell number change was -29.6%.

Consider `Cc1cc(C)n(Cc2ccc(Cl)nc2)n1`, for which the cell number change is -26.1%. Under setting [1], the AC50 was 0.00517 µM [falling, full curve, poor fit].

For `CN1/C(=C\C(=O)Nc2cccnc2)c2ccccc2CC1(C)C`, the cell number change was -31.7%. In addition, the AC50 under setting [2] is 29.1 µM [falling, single point]. Besides, the AC50 under setting [1] was 25.9 µM [falling, single point].

Turning to `CCN1CCN(Cc2ccc(NC(=O)c3cc(NC(=O)c4ccno4)cc(OC)c3)cc2C(F)(F)F)CC1`, the cell number change is -3.76%.

As to `O=C(CSc1nnc(COc2ccc(Cl)cc2)n1Cc1ccco1)N1CCNC1=O`, the cell number change was 6%. The AC50 under setting [1] is 0.13 µM [falling, partial curve, poor fit].

For `CC1(C)CC(=O)C2=C(C1)Nc1cc(C(=O)c3ccccc3)ccc1NC2c1ccccn1` (configuration not stated), under setting [1], the AC50 is 16.4 µM [falling, single point].

As to `COc1ccc(C(=O)CSc2nnc(NC(=O)C3CC(=O)N(c4cccc(OC)c4)C3)s2)cc1` (configuration not stated), under setting [1], the concentration at half-maximal activity (AC50) was 0.00461 µM [falling, full curve, poor fit].

With `COc1ccc(-c2nn(-c3ccccc3)cc2/C=N/N=C(N)N)cc1OC`, the cell number change is -19.7%. Moreover, the AC50 under setting [1] is 10.3 µM [falling, partial curve].

`O=C(O)C1CCN(C(=O)c2ccco2)CC1`: the cell number change was -9.7%.

Turning to `O=[N+]([O-])c1cnc(N2CCCCC2)c([N+](=O)[O-])c1`, the cell number change is -24.6%. Moreover, under setting [2], the AC50 is 0.651 µM [rising, single point]. Moreover, the AC50 under setting [1] is 29.1 µM [rising, single point].

Turning to `CCOC(=O)/C(=C\c1ccc(C)cc1)NC(=O)c1ccccc1`, the cell number change was -33.6%. Besides, under setting [2], the AC50 is 29.1 µM [falling, single point].

Take `COC(=O)c1cccc(NC(=O)Cn2cnc3ccccc3c2=O)c1`: the cell number change turned out to be 48.1%. The AC50 under setting [2] was 18.4 µM [rising, single point].

In the case of `Oc1c(Br)cc(Br)cc1CNc1ccccn1`, the cell number change was 8.77%. The AC50 under setting [1] is 23.1 µM [rising, single point].

In the case of `CCOC(=O)c1ccc(-n2c(CN3CCN(CCO)CC3)nc3ccc([N+](=O)[O-])cc3c2=O)cc1`, the cell number change stood at 9.88%. Further, the AC50 under setting [2] is 0.82 µM [rising, partial curve, poor fit]. In addition, under setting [1], the AC50 is 0.517 µM [rising, full curve, poor fit].

Take `COc1ccc(C(CCNCc2ccc(OC(C)C)cc2)c2ccccc2OC)cc1` (configuration not stated): the cell number change is -98.2%. In addition, the AC50 under setting [2] was 18.4 µM [falling, partial curve]. Besides, the AC50 under setting [1] was 3.66 µM [falling, single point].

As for `COc1cccc(-c2nc(S(=O)(=O)c3ccccc3)c(N3CCOCC3)o2)c1`, the cell number change is -21.9%. Further, the AC50 under setting [1] is 5.17 µM [rising, full curve].

In the case of `Cc1nc(SCC(O)CO)c([N+](=O)[O-])[nH]1` (configuration not stated), the cell number change is -12.1%. Moreover, the AC50 under setting [1] was 0.13 µM [falling, full curve, poor fit].

For the compound `O=C(COC(=O)c1cccnc1Cl)NCCC1=CCCCC1`, the cell number change was -30.2%. Besides, the AC50 under setting [1] was 0.1 µM [rising, full curve, poor fit].

As to `CCN(CC)c1ccc(C(=O)NNC(=O)CCNC(=O)c2ccccc2)cc1`, the cell number change was -19.4%. Further, under setting [1], the AC50 is 0.206 µM [falling, full curve].

In the case of `O=C(Cn1cc(C(=O)COc2ccccc2)c2ccccc21)NCc1ccco1`, the cell number change was -4.37%. The concentration at half-maximal activity (AC50) under setting [1] is 2.59 µM [rising, partial curve, poor fit].

Take `Cc1onc(-c2ccccc2)c1C(=O)N1CCN(S(=O)(=O)c2ccc(OC(F)(F)F)cc2)CC1`: the cell number change was determined as 4.5%. For the same compound, the AC50 under setting [1] was 0.58 µM [rising, single point].

On to `Cc1ccc(C)c(S(=O)(=O)Nc2ccc3[nH]c(=O)[nH]c3c2)c1`, for which the cell number change stood at 17.2%. Moreover, the AC50 under setting [2] was 0.00517 µM [rising, full curve, poor fit]. Further, the AC50 under setting [1] is 20.6 µM [falling, single point].

As for `O=C(O)CSC(=S)N1CCCC1`, the AC50 under setting [2] is 0.0461 µM [rising, full curve, poor fit].

With `Cc1cc(C)cc(NC(=O)Oc2ccccc2N2CCCCC2)c1`, the cell number change came to 36.3%. Also, under setting [2], the AC50 is 5.8 µM [rising, partial curve].

For `CCn1nnnc1SCC(=O)Nc1cc(OC)cc(OC)c1`, the cell number change is -1.42%. Besides, under setting [1], the AC50 was 0.461 µM [rising, full curve, poor fit].

As to `Cc1ccccc1C(=O)NC(=S)NC1CCSC1=O` (configuration not stated), the cell number change was found to be 58.9%. Also, under setting [2], the AC50 is 16.4 µM [rising, single point]. In addition, the AC50 under setting [1] was 29.1 µM [rising, single point].

`COc1ccc(/C=C/C(=O)NCCc2ccc(OC)c(OC)c2)cc1`: the cell number change is -36.8%. Besides, the AC50 under setting [2] was 6.51 µM [falling, partial curve]. Moreover, under setting [1], the AC50 is 5.17 µM [falling, partial curve].

As to `CC(C)=CCCC(C)CN1CCC(n2nccc2NC(=O)C2CCCC2)CC1` (configuration not stated), the cell number change was -17.3%. Moreover, under setting [1], the AC50 is 6.51 µM [rising, single point].

As for `Cc1ccccc1NC(=O)CN1C(=O)NC2(CCCCC2)C1=O`, the cell number change was determined as 34.6%. The AC50 under setting [2] was 25.9 µM [rising, single point]. For the same compound, the AC50 under setting [1] is 16.4 µM [rising, single point].

Consider `C=CCn1c(Cc2cccs2)nnc1SCC(=O)Nc1cccc(OC)c1`, for which the cell number change was 30.3%. Besides, the AC50 under setting [2] was 14.6 µM [rising, single point]. The half-maximal activity concentration (AC50) under setting [1] was 29.1 µM [rising, single point].

As to `O=C(COc1ccc(/C=N/NC(=O)c2cc3ccccc3o2)cc1Br)Nc1ccccc1`, the cell number change is -7.18%. For the same compound, under setting [1], the AC50 is 2.06 µM [falling, partial curve].

Turning to `COc1ccc(Cc2nn3c(-c4cc(OC)c(OC)c(OC)c4)nnc3s2)cc1`, the AC50 was 1.64 µM [rising, partial curve] under setting [2] and 1.46 µM [rising, partial curve] under setting [1].

On to `CCN(CC)S(=O)(=O)c1ccc(NC2=NS(=O)(=O)c3ccccc32)cc1`, for which the cell number change is -0.347%.

In the case of `O=c1oc2ccccc2c(NC2CCCCC2)c1NS(=O)(=O)c1ccc(Cl)cc1`, the cell number change was -37.8%. Moreover, the AC50 under setting [2] is 32.6 µM [falling, single point].

`COc1ccc(CN2CC(C(=O)NCCCN3CCCCC3)CC2=O)cc1` (configuration not stated): the cell number change is -34.4%. The AC50 under setting [2] is 7.31 µM [falling, partial curve].

Turning to `CC1(c2ccc(OC(F)F)cc2)NC(=O)N(CC(=O)Nc2ccc(N3CCCCC3)cc2)C1=O` (configuration not stated), the AC50 under setting [1] is 6.51 µM [rising, single point].

For the compound `O=C(/C=C/c1ccccc1)Nc1ccc(Cl)cn1`, the cell number change is -0.319%. Further, the AC50 under setting [2] was 6.51 µM [rising, single point].

As to `CCc1c(C)nc(SCC(=O)N2CCCCC2)[nH]c1=O`, the cell number change was determined as 29.8%. Moreover, the AC50 under setting [1] was 20.6 µM [rising, single point].

In the case of `CCNC(=S)Nc1cc(-c2ccc(Cl)cc2)[nH]n1`, the cell number change is 7.85%. Moreover, the AC50 under setting [1] is 0.164 µM [falling, full curve, poor fit].

For `CC1=C(C(=O)Nc2cc(C)ccn2)C(c2ccc(C)cc2)C2=C(CCCC2=O)N1` (configuration not stated), the cell number change was -2.55%.

Take `CN1C(=O)c2ccccc2N(C)C1c1ccccc1Cl` (configuration not stated): the cell number change is 31%. For the same compound, under setting [2], the AC50 is 9.2 µM [rising, partial curve, poor fit].

With `O=C(CSc1nc2ccccc2c(=O)[nH]1)Nc1cccc([N+](=O)[O-])c1`, the cell number change worked out at 8.42%. Besides, the AC50 under setting [2] was 2.91 µM [rising, single point].

Turning to `Oc1ccc(NC(=S)N=Nc2c(O)[nH]c3ccc(Br)cc23)cc1`, the cell number change was -56.1%. Further, the AC50 under setting [2] was 16.4 µM [falling, single point]. The AC50 under setting [1] was 29.1 µM [falling, single point].

As for `COc1ccccc1CNC(=O)c1cnc2ccccn2c1=O`, the cell number change worked out at 58.9%. For the same compound, under setting [2], the AC50 was 6.51 µM [rising, partial curve]. The AC50 under setting [1] was 4.11 µM [rising, partial curve].

As for `CCOC(=O)N1CCN(c2c(NCc3ccc(Cl)cc3)c(=O)c2=O)CC1`, the cell number change is -28.6%. The AC50 under setting [1] is 29.1 µM [falling, partial curve, poor fit].

`O=c1[nH]c(C(Cl)Cl)nc2sc3c(c12)CCN(Cc1ccccc1)C3`: the cell number change was 4.71%. For the same compound, under setting [1], the AC50 is 0.00411 µM [falling, full curve, poor fit].

For the compound `CC1CC(C)CN(CCCNC(=O)CCNC(=O)Cn2ccc3ccccc3c2=O)C1` (configuration not stated), the cell number change was -106%. Besides, the AC50 under setting [2] was 32.6 µM [falling, partial curve]. In addition, the AC50 under setting [1] was 5.8 µM [rising, partial curve, poor fit].

Consider `Cc1ccc2c(c1)c1c(n2CC(O)CNC2CCCC2)CCCC1` (configuration not stated), for which the cell number change was determined as 2.17%.

Regarding `CCc1ccccc1Oc1ccc(S(=O)(=O)N2CCN(C)CC2)cn1`, the concentration at half-maximal activity (AC50) under setting [2] was 6.51 µM [rising, single point].

`CC(C)(O)[C@H](O)COc1c2ccoc2cc2oc(=O)ccc12`: the cell number change is 21.1%. Also, the AC50 under setting [1] is 3.26 µM [rising, partial curve].

As for `Cc1cc2ccccc2c(=O)n1CC(=O)NCC(=O)N1CCN(c2ccccc2)CC1`, the cell number change is -26.5%.

On to `N#Cc1c(N)n(CCOC(=O)c2cccc(Br)c2)c2nc3ccccc3nc12`, for which the cell number change is -32.1%. In addition, the AC50 under setting [2] was 29.1 µM [falling, single point]. Besides, the AC50 under setting [1] is 1.84 µM [rising, full curve].

On to `C=C(C)C(=O)Nc1nnc(-c2cccs2)s1`, for which the cell number change was -48.9%. Under setting [2], the AC50 is 32.6 µM [falling, single point]. The AC50 under setting [1] was 32.6 µM [falling, single point].

As a reminder, the AC50 is the midpoint of the concentration-response curve, whichever way the signal moves.
